This is one part of the list. These are further read-outs of the screen, such as a control signal, another cell line or another target. No call is given for them. Compounds called inactive in the main read-out are mostly missing here. Words in brackets tell the shape of the fitted curve; partial curves, single points and poor fits give uncertain potencies.
Test: qHTS Assay for Lipid Storage Modulators in Drosophila S3 Cells;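 as to cell number change: cells counted by Cell Tracker Red CMTPX staining in the red channel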
Conditions: BODIPY lipid droplet fluorescence, 18-24 h; for cell number change: measured here: cell count max response, cells fed with added oleic acid
Method in brief: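 Laser-scanning cytometry quantifies lipid droplet accumulation (500–530 nm total intensity; droplet/cell object ratio) in oleic acid-fed (400 uM added) Drosophila S3 cells treated with a concentration series. 20 uM Triacsin C defined 100% inhibition.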

[1] = measured here: lipid fluorescence (Fed channel) AC50, cells fed with added oleic acid
[2] = measured here: cell number channel AC50, cells fed with added oleic acid

Row | SMILES | cell number change [%] | AC50 [1] | AC50 [2]
1 | Cc1ccc(-c2nnc3n2N=C(c2ccccc2Br)CS3)cc1 | -2.27 | 1.46 µM [rising, full curve, poor fit] | 
2 | NC(=O)c1ccccc1NS(=O)(=O)c1ccc(S(=O)(=O)N2CCCC2)cc1 | -10.1 | 11.6 µM [falling, partial curve, poor fit] | 
3 | Cc1cc(C)n(CCC(=O)Nc2ccc(-c3ccno3)cc2)n1 | -83.3 |  | 29.1 µM [falling, single point]
4 | COc1ccc(CCNc2nc(C)nc3c2oc2ccccc23)cc1OC | -42.4 | 29.1 µM [falling, single point] | 29.1 µM [falling, single point]
5 | O=C(CNc1cc([N+](=O)[O-])ccc1NCCO)Nc1cccc(S(=O)(=O)N2CCCCC2)c1 | 24.7 | 3.66 µM [rising, partial curve, poor fit] | 
6 | O=C(Cc1ccc(Cl)cc1)NC1CCCN(Cc2ccccc2F)C1 (centres undefined) | 4.68 |  | 
7 | CC(Sc1nc2ccccc2c(=O)n1CC1CCCO1)C(=O)NC(C)c1ccccc1 (centres undefined) | 219 | 20.6 µM [rising, partial curve] | 29.1 µM [rising, single point]
8 | O=C(Cc1ccccc1)N/N=C/c1cc(Br)cs1 | 30.2 |  | 29.1 µM [rising, single point]
9 | O=C(NC(=S)Nc1ccccc1)C1CCCCC1 | 21.1 |  | 0.231 µM [rising, full curve, poor fit]
10 | Cn1c(=O)c2cn3ncccc3c2n(C)c1=O | -19.4 | 0.58 µM [rising, partial curve] | 
11 | O=c1oc2ccccc2c(NCc2ccc(Cl)cc2)c1[N+](=O)[O-] |  | 2.59 µM [rising, partial curve] | 1.64 µM [rising, partial curve]
12 | Cc1cc(Nc2ccc3ccccc3c2)n2ncnc2n1 | -1.6 | 0.651 µM [rising, full curve, poor fit] | 
13 | CCOC(=O)CN1CC23C=CC(O2)C(C(=O)NCCc2ccccc2)C3C1=O (centres undefined) | 8.47 | 0.291 µM [falling, full curve, poor fit] | 0.259 µM [rising, partial curve, poor fit]
14 | CCn1nnnc1-c1ccc(OC)c(S(=O)(=O)Nc2ccc(S(N)(=O)=O)cc2)c1 | -2.17 |  | 
15 | Cc1nc2ccccn2c1C(=O)CSc1ccccc1 | 20.8 | 6.51 µM [rising, partial curve, poor fit] | 6.51 µM [rising, single point]
16 | O=C(NCc1ccc(F)cc1)c1noc2c1CCCCC2 | -16.1 |  | 
17 | CC/C(=C\C(=O)c1ccncc1)Nc1ccc(Br)cc1 | 83.6 | 1.3 µM [rising, full curve] | 1.3 µM [rising, full curve]
18 | CC(NC(=O)CCCc1ccccc1)c1ccncc1 (centres undefined) | 15.8 |  | 
19 | O=C(CN1C(=O)c2ccccc2S1(=O)=O)c1ccc(O)c(O)c1 | -33.6 | 5.8 µM [falling, full curve] | 6.51 µM [falling, partial curve]
20 | CCCNC(=O)c1ccc(CN2CCc3ccccc3C2)cc1 | 18.1 |  | 

Row | SMILES | cell number change [%] | AC50 [1] | AC50 [2]
21 | N#Cc1c(-c2ccccc2)nc(-c2ccccc2)nc1N1CCOCC1 | 90 | 0.731 µM [rising, partial curve] | 0.461 µM [rising, full curve]
22 | CCCCNC(=O)CSc1nnc(NC(C)=O)s1 | 1.74 | 0.00517 µM [falling, full curve, poor fit] | 
23 | c1ccc(N2CCN(c3nc4ccccc4n4cnnc34)CC2)cc1 | -2.58 | 9.2 µM [rising, partial curve, poor fit] | 
24 | O=[N+]([O-])c1ccc(Cl)c(S(=O)(=O)Nc2ccc(-c3ccc(N4CCCC4)nn3)cc2)c1 | 6.88 |  | 
25 | Clc1ccc2c(c1)C1=C(C(c3ccncc3)O2)C(c2ccc(Br)cc2)n2ncnc2N1 (centres undefined) | -13.6 |  | 3.66 µM [rising, single point]
26 | Cc1c(C(=O)N(C)CCCCN2CCOCC2)oc2c(F)cccc12 | 21.5 | 29.1 µM [rising, single point] | 0.116 µM [rising, full curve, poor fit]
27 | Cc1ccc(C(=O)Nc2cccc(C(=O)N3CCOCC3)c2)cc1Cl | -36.9 | 20.6 µM [falling, single point] | 29.1 µM [falling, single point]
28 | CCOc1ccc(NCc2nnc(SCC(=O)Nc3cc(C)on3)n2-c2ccccc2OC)cc1 | 11.3 | 7.31 µM [rising, partial curve, poor fit] | 
29 | CCN(CC)C(=O)CSc1nnc(CSc2ncccn2)n1C | -13 |  | 
30 | COc1ccc(-c2cnn(-c3ccccc3)c2N)cc1OC | -12.8 | 20.6 µM [falling, single point] | 
31 | O=C(O)CCCC(=O)Nc1ccc(N2CCCC2)cc1 | 1.03 | 0.00517 µM [falling, full curve, poor fit] | 
32 | CCN(CC)S(=O)(=O)c1c(Br)cc(C)cc1Br | 2.46 |  | 
33 | CC(C)CC(=O)NC1(C(F)(F)F)C(=O)Nc2c1c(=O)[nH]c(=O)n2Cc1ccco1 (centres undefined) | -13.2 |  | 2.06 µM [falling, partial curve]
34 | Cc1csc(NC(=O)CSc2nnc(NC(=O)C3CC(=O)N(c4ccccc4)C3)s2)n1 (centres undefined) | 8.33 |  | 
35 | COc1ccc(/C=C/CN2CCC(Oc3ccc(C(=O)N4CCCCC4)cc3)CC2)cc1 | 6.93 | 29.1 µM [rising, single point] | 
36 | O=c1c2ccccc2nc(SCc2cn3ccsc3n2)n1-c1ccc(F)cc1 |  | 2.06 µM [rising, partial curve] | 1.64 µM [rising, partial curve]
37 | O=S(=O)(c1cccs1)N1CN(Cc2cccs2)c2nc3ccccc3nc21 |  | 0.651 µM [rising, single point] | 
38 | Cc1ccc2nc(SCC(=O)Nc3ccc(C)c([N+](=O)[O-])c3)[nH]c2c1 | -31.1 | 29.1 µM [falling, single point] | 16.4 µM [falling, single point]
39 | Cc1cccc(C(C)C)c1NC(=O)COC(=O)C1CC(=O)N(Cc2ccccc2)C1 (centres undefined) | 17.6 |  | 
40 | O=C(c1cc(COc2cccc(C(F)(F)F)c2)on1)N1CCC(c2ccccc2)CC1 | 25.7 |  | 

14 entries already listed, sorted by heavy-atom count, descending.
Row | SMILES | cell number change [%] | AC50 [1] | AC50 [2]
28 | CCOc1ccc(NCc2nnc(SCC(=O)Nc3cc(C)on3)n2-c2ccccc2OC)cc1 | 11.3 | 7.31 µM [rising, partial curve, poor fit] | 
35 | COc1ccc(/C=C/CN2CCC(Oc3ccc(C(=O)N4CCCCC4)cc3)CC2)cc1 | 6.93 | 29.1 µM [rising, single point] | 
24 | O=[N+]([O-])c1ccc(Cl)c(S(=O)(=O)Nc2ccc(-c3ccc(N4CCCC4)nn3)cc2)c1 | 6.88 |  | 
39 | Cc1cccc(C(C)C)c1NC(=O)COC(=O)C1CC(=O)N(Cc2ccccc2)C1 (centres undefined) | 17.6 |  | 
33 | CC(C)CC(=O)NC1(C(F)(F)F)C(=O)Nc2c1c(=O)[nH]c(=O)n2Cc1ccco1 (centres undefined) | -13.2 |  | 2.06 µM [falling, partial curve]
36 | O=c1c2ccccc2nc(SCc2cn3ccsc3n2)n1-c1ccc(F)cc1 |  | 2.06 µM [rising, partial curve] | 1.64 µM [rising, partial curve]
37 | O=S(=O)(c1cccs1)N1CN(Cc2cccs2)c2nc3ccccc3nc21 |  | 0.651 µM [rising, single point] | 
21 | N#Cc1c(-c2ccccc2)nc(-c2ccccc2)nc1N1CCOCC1 | 90 | 0.731 µM [rising, partial curve] | 0.461 µM [rising, full curve]
26 | Cc1c(C(=O)N(C)CCCCN2CCOCC2)oc2c(F)cccc12 | 21.5 | 29.1 µM [rising, single point] | 0.116 µM [rising, full curve, poor fit]
29 | CCN(CC)C(=O)CSc1nnc(CSc2ncccn2)n1C | -13 |  | 
30 | COc1ccc(-c2cnn(-c3ccccc3)c2N)cc1OC | -12.8 | 20.6 µM [falling, single point] | 
31 | O=C(O)CCCC(=O)Nc1ccc(N2CCCC2)cc1 | 1.03 | 0.00517 µM [falling, full curve, poor fit] | 
22 | CCCCNC(=O)CSc1nnc(NC(C)=O)s1 | 1.74 | 0.00517 µM [falling, full curve, poor fit] | 
32 | CCN(CC)S(=O)(=O)c1c(Br)cc(C)cc1Br | 2.46 |  | 

Following part

Row | SMILES | cell number change [%] | AC50 [1] | AC50 [2]
41 | O=C(CSc1ccc2nnc(-c3cccnc3)n2n1)NCc1ccco1 | 0.826 |  | 
42 | Cc1cc(=O)oc2cc(OCC(=O)OCC(=O)NCCc3ccccc3)ccc12 | -30.6 | 29.1 µM [falling, single point] | 0.082 µM [falling, full curve]
43 | O=C(Nc1ccccc1C(=O)O)c1cc(S(=O)(=O)N2CCCCCC2)ccc1Cl | -1.25 |  | 
44 | CCOc1ccccc1NC(=O)CN1CCC(C(=O)c2ccc(F)cc2)CC1 | 29.1 |  | 
45 | O=C(CCn1cccc1)Nc1cc(F)ccc1F | -32.3 | 29.1 µM [falling, single point] | 2.91 µM [falling, full curve]
46 | O=C(Cc1nc2ccccc2[nH]1)c1ccc(Br)cc1 | 18 | 6.51 µM [rising, single point] | 4.11 µM [rising, single point]
47 | O=C(NCCN1CCCCC1)c1cc(Cl)ccc1Cl | 26 | 6.51 µM [rising, single point] | 
48 | CC(=O)Nc1ccc(-c2cc(-c3ccccc3)nc(-c3ccccc3)n2)cc1 | -10.5 | 6.51 µM [falling, full curve, poor fit] | 
49 | COc1ccc(C2Nc3ccccc3C(=O)N2NC(C)=O)c(OC)c1 (centres undefined) | 7.8 | 0.116 µM [rising, full curve, poor fit] | 
50 | C=CCn1cc([N+](=O)[O-])nc1C | -22.6 | 1.64 µM [falling, partial curve, poor fit] | 0.259 µM [falling, partial curve, poor fit]
51 | Cc1ccc(C(=O)NCC(=O)NCCCc2ccccc2)s1 | -2.7 | 18.4 µM [rising, partial curve] | 
52 | O=C(CN(CC1CCCO1)C(=O)Cn1nnc(-c2ccc(F)cc2)n1)NC1CCCCC1 (centres undefined) | 39.7 | 16.4 µM [rising, partial curve, poor fit] | 9.2 µM [rising, partial curve, poor fit]
53 | COc1ccc(Cl)cc1NC(=O)CCc1ccccc1 | 59.5 | 0.13 µM [rising, full curve, poor fit] | 0.731 µM [rising, partial curve, poor fit]
54 | O=C(CCC1CCCCC1=O)c1ccccc1 (centres undefined) | 9.52 |  | 
55 | COC(=O)c1ccc(N=Cc2c(C(F)(F)F)[nH]n(C)c2=O)cc1 | 2.05 | 6.51 µM [rising, single point] | 6.51 µM [rising, single point]
56 | COc1cc2nc3occc3c(OC)c2cc1OC | 20.6 | 0.0366 µM [rising, full curve, poor fit] | 
57 | CCn1cc(C(=O)O)c(=O)c2cc(OC)ccc21 | 39 |  | 14.6 µM [rising, single point]
58 | CCOC(=O)c1cccc(NS(=O)(=O)c2c(C(=O)N3CCCCCC3)c(C)n(C)c2C)c1 |  | 10.3 µM [falling, partial curve] | 
59 | COc1ccccc1-n1c(C)nc2cc(C(=O)NCCN3CCOCC3)ccc21 | 40.4 | 8.2 µM [rising, partial curve, poor fit] | 20.6 µM [rising, single point]

From PubChem BioAssay AID2685 (National Center for Advancing Translational Sciences (NCATS), 2010)
